# Values quoted from earlier work in patent US6987093B2 (priority 2001, dated 2006).
# For at least one compound, name, drawing or mass did not settle the structure.
# Tested on: H. influenzae
# Details: cited from earlier work
smiles,measurement,value
C=CC1=C(C(=O)O)N2C(=O)[C@@H](NC(=O)/C(=N\OCC(=O)O)c3csc(N)n3)[C@H]2SC1 [Cefixime],"Response: presumptive bacterial/clinical success outcomes (i.e., cured and improved) at 4–21 day post-therapy follow-up",61/81 (75%)
